Source: article PMC7819943, “Rice protein-binding microarrays: a tool to detect cis-acting elements near promoter regions in rice”
For at least one entry, the source does not settle the construct or the ends of the probe.

System: OsWOX13 (Oryza sativa)
Test: EMSA
Conditions: EMSA: 5 ug protein, 40 fmol FAM-dsDNA, 1 ug poly(dI-dC), 1X binding buffer (Pierce), 2.5% glycerol, 0.05% NP-40, 20 ul, 1 h room temperature; 6% acrylamide gel, 0.5X TBE; recombinant protein; label: 5' FAM

“AATATAACGAAACATGCAATCAATCAAAATGTTGGGAAGG (double strand) [Os08g0536300_14 (Hd1-3 promoter probe)]”: binds.
